Laboratory results as given in PubChem BioAssay AID276 (DTP/NCI, 2004).
The list is a part of this screen's results and no random one: it is rich in T/C values a quarter to a half above the control, in often repeated tests (any T/C) and in doses without a T/C. Further doses and runs are listed elsewhere. T/C is the treated group as % of the vehicle group. Some doses have a count of surviving animals in place of a T/C: the source files T/C as zero there, which appears to mark a toxic dose or a test without result, not a measured value. Some doses without a T/C left all or most animals alive at the check, yet need not have been tolerated: survival well below the control is almost never listed, so the zero probably covers shortened survival too. Counts of survivors are from the toxicity check (mostly the fifth day) where no day follows; animals may have died later. Schedules are NCI's codes, taken here to give the interval after Q, in days (D) or hours (H), and the number of doses after X. Some doses were run more than once; the values are given in rising order. Where survival is the endpoint, this PubChem deposit counts one and a half times the control or more as active, and values a quarter to a half above the control carry no call in these data; other NCI protocols may use other cut-offs. Some T/C values are followed by the survivors on the day toxicity was checked, most often the fifth; where none is given, no animal had died by that day.

System: B6C3F1 mice, Lewis lung carcinoma iv, survival T/C
Assay: NCI In Vivo Anticancer Drug Screen. Data for tumor model Lewis Lung Carcinoma (intravenous) in B6C3F1 mice
Conditions: T/C endpoint: median survival time, higher T/C = longer survival
How it was run: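 Mice carrying transplanted tumors received test compound; survival in the treated group was divided by that of the vehicle-treated control group to give the T/C value.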

[1] = dose: 25.0 mg/kg/injection, schedule: Q01DX009 (ip), vehicle: saline with Tween-80
[2] = dose: 50.0 mg/kg/injection, schedule: Q01DX009 (ip), vehicle: saline with Tween-80
[3] = dose: 100.0 mg/kg/injection, schedule: Q01DX009 (ip), vehicle: saline with Tween-80
[4] = dose: 200.0 mg/kg/injection, schedule: Q01DX009 (ip), vehicle: saline with Tween-80

Question: Which survivor count (dose: 40.0 mg/kg/injection, schedule: Q01DX009 (ip), vehicle: Klucel (hydroxypropylcellulose) (HPC)) does the source give for `Cc1cc(NCCN(C(C)C)C(C)C)nc(/N=C(\N)Nc2ccc(Cl)c(C(F)(F)F)c2)n1` here?
Answer: The survivor count was 9 of 10 and 10 of 10.

Question: `C1CN1c1nc(N2CC2)nc(N2CC2)n1` was tested. Which survivor count (dose: 2.0 mg/kg/injection, schedule: Q01DX009 (ip), vehicle: suspension in saline) did it give?
Answer: The survivor count was 10 of 10.

Question: How did the survivor count [1] turn out when `Cn1c2ccccc2c2ccc3c(c21)C(=O)C=CC3=O` was run?
Answer: The survivor count was 8 of 10.

Question: What about the survivor count [2] of the same molecule?
Answer: Its survivor count is 8 of 10.

Question: And the survivor count [3]?
Answer: The survivor count was 1 of 10.

Question: And the survivor count [4]?
Answer: The survivor count was 0 of 10.

Question: For `CSc1ncnc2c1ncn2C1OC(CO)C(O)C1O` (stereo not given), which survivor count (dose: 100.0 mg/kg/injection, schedule: Q01DX009 (ip), vehicle: saline + alcohol) is on record?
Answer: Its survivor count is 7 of 10.

Question: For `Nc1nc(-c2ccccc2)c(Br)c(=O)[nH]1`, which survivor count (dose: 1600.0 mg/kg/injection, schedule: Q01DX009 (ip), vehicle: saline with Tween-80) is on record?
Answer: Its survivor count is 0 of 10.

Question: How did the T/C (dose: 25.0 mg/kg/injection, schedule: Q01DX009 (ip), vehicle: Klucel (hydroxypropylcellulose) (HPC)) turn out when `COc1ccc2[nH]c3ccc4cc[n+](CCN5CCC(C6CCN(CC[n+]7ccc8ccc9[nH]c%10ccc(OC)cc%10c9c8c7)CC6)CC5)cc4c3c2c1` was run?
Answer: The T/C was 125 % of control.

Question: And the T/C (dose: 50.0 mg/kg/injection, schedule: Q01DX009 (ip), vehicle: Klucel (hydroxypropylcellulose) (HPC))?
Answer: Its T/C is 125 and 146 % of control [9 of 10 alive].

Question: And the survivor count (dose: 100.0 mg/kg/injection, schedule: Q01DX009 (ip), vehicle: Klucel (hydroxypropylcellulose) (HPC))?
Answer: The survivor count was 0 of 10.

Question: And the survivor count (dose: 200.0 mg/kg/injection, schedule: Q01DX009 (ip), vehicle: Klucel (hydroxypropylcellulose) (HPC))?
Answer: Its survivor count is 0 of 10.

Question: What does the source list for `C[CH2][Sn]1([CH2]C)[O]OC(c2ccccc2)[O]1` (stereo not given)?
Answer: survivor count (dose: 6.25 mg/kg/injection, schedule: Q01DX009 (ip), vehicle: saline with Tween-80): 10 of 10; survivor count [1]: 7 of 10

Question: Which survivor count (dose: 1.5 mg/kg/injection, schedule: Q01DX009 (ip), vehicle: saline with Tween-80) does the source give for `O=C1c2cccc3cc([N+](=O)[O-])cc(c23)C(=O)N1CCN1CCCC1` here?
Answer: The survivor count was 9 of 10.

Question: And the survivor count (dose: 12.0 mg/kg/injection, schedule: Q01DX009 (ip), vehicle: saline with Tween-80)?
Answer: The survivor count was 10 of 10.

Question: What about the survivor count (dose: 24.0 mg/kg/injection, schedule: Q01DX009 (ip), vehicle: saline with Tween-80) of the same molecule?
Answer: Its survivor count is 4 of 10.

Question: And the survivor count (dose: 48.0 mg/kg/injection, schedule: Q01DX009 (ip), vehicle: saline with Tween-80)?
Answer: Its survivor count is 0 of 10.

Question: For `[N-]=[N+]=CC(=O)CCC(=O)C=[N+]=[N-]`, which survivor count (dose: 1.56 mg/kg/injection, schedule: Q01DX009 (ip), vehicle: DMSO) is on record?
Answer: Its survivor count is 10 of 10.

Question: What about the survivor count (dose: 3.12 mg/kg/injection, schedule: Q01DX009 (ip), vehicle: DMSO) of the same molecule?
Answer: Its survivor count is 9 of 10.

Question: And the survivor count (dose: 6.25 mg/kg/injection, schedule: Q01DX009 (ip), vehicle: DMSO)?
Answer: The survivor count was 8 of 10.

Question: And the survivor count (dose: 12.0 mg/kg/injection, schedule: Q01DX009 (ip), vehicle: DMSO)?
Answer: The survivor count was 9 of 10.

Question: What about the survivor count (dose: 12.5 mg/kg/injection, schedule: Q01DX009 (ip), vehicle: DMSO) of the same molecule?
Answer: Its survivor count is 8 of 10 and 10 of 10.

Question: And the survivor count (dose: 24.0 mg/kg/injection, schedule: Q01DX009 (ip), vehicle: DMSO)?
Answer: The survivor count was 9 of 10.

Question: And the survivor count (dose: 25.0 mg/kg/injection, schedule: Q01DX009 (ip), vehicle: DMSO)?
Answer: The survivor count was 10 of 10.

Question: What about the survivor count (dose: 48.0 mg/kg/injection, schedule: Q01DX009 (ip), vehicle: DMSO) of the same molecule?
Answer: The survivor count was 8 of 10.

Question: What about the survivor count (dose: 50.0 mg/kg/injection, schedule: Q01DX009 (ip), vehicle: DMSO) of the same molecule?
Answer: The survivor count was 10 of 10.

Question: And the survivor count (dose: 100.0 mg/kg/injection, schedule: Q01DX009 (ip), vehicle: DMSO)?
Answer: The survivor count was 10 of 10.

Question: What about the survivor count (dose: 200.0 mg/kg/injection, schedule: Q01DX009 (ip), vehicle: DMSO) of the same molecule?
Answer: Its survivor count is 10 of 10.

Question: What about the survivor count (dose: 400.0 mg/kg/injection, schedule: Q01DX009 (ip), vehicle: DMSO) of the same molecule?
Answer: Its survivor count is 4 of 10 and 8 of 10.

Question: With `COC1CC(C)C(OC)C2=CC(=O)C=C(NC(=O)/C(C)=C/C=C\C(C)C(OC(N)=O)/C(C)=C\C(C)C1OC)C2=O` (stereo not given) as the molecule, how does the survivor count (dose: 20.0 mg/kg/injection, schedule: Q01DX009 (ip), vehicle: saline + Tween-80 + alcohol) read?
Answer: The survivor count was 3 of 10.

Question: How did the survivor count [4] turn out when `Nc1nc2c(C(=O)N3CCCC3)nnn2c2ccccc12` was run?
Answer: Its survivor count is 0 of 10.

Question: For `CN(C)C(=O)SC1=C(c2c(Cl)cccc2Cl)C(=O)c2ccccc21`, which survivor count (dose: 400.0 mg/kg/injection, schedule: Q01DX009 (ip), vehicle: Klucel (hydroxypropylcellulose) (HPC)) is on record?
Answer: The survivor count was 8 of 10.

Question: With `CC(=O)O[C@@]1(C)[C@@H](C)C(=O)O[C@@H]2CCN3CC=C(COC(=O)[C@]1(C)O)[C@H]23` as the molecule, how does the T/C [1] read?
Answer: The T/C was 138 % of control.

Question: What about the T/C [2] of the same molecule?
Answer: Its T/C is 146 % of control.

Question: And the T/C [3]?
Answer: Its T/C is 140 % of control.

Question: And the survivor count [4]?
Answer: The survivor count was 8 of 10.

Question: `COc1cccc2c1C(=O)c1c(O)c3c(c(O)c1C2=O)CC(O)(/C(C)=N/NC(=O)CCC(=O)N/N=C(\C)C1(O)Cc2c(O)c4c(c(O)c2C(OC2CC(N)C(O)C(C)O2)C1)C(=O)c1c(OC)cccc1C4=O)CC3OC1CC(N)C(O)C(C)O1` (stereo not given) was tested. Which T/C (dose: 3.0 mg/kg/injection, schedule: Q01DX009 (ip), vehicle: water) did it give?
Answer: The T/C was 125 % of control [9 of 10 alive].

Question: What about the survivor count (dose: 24.0 mg/kg/injection, schedule: Q01DX009 (ip), vehicle: water) of the same molecule?
Answer: Its survivor count is 10 of 10.

Question: What does the source list for `CCCCC(=O)OCC1OC(n2cnc3c(=S)nc[nH]c32)C(OC(=O)CCCC)C1OC(=O)CCCC` (stereo not given)?
Answer: survivor count [2]: 10 of 10; survivor count [3]: 10 of 10

Question: Which results are given for `N=C(N)CCCCCCCCC(=N)N`?
Answer: survivor count (dose: 25.0 mg/kg/injection, schedule: Q01DX009 (ip), vehicle: saline): 6 of 10; survivor count (dose: 100.0 mg/kg/injection, schedule: Q01DX001 (ip), vehicle: saline): 0 of 10; survivor count (dose: 200.0 mg/kg/injection, schedule: Q01DX001 (ip), vehicle: saline): 0 of 10

Question: Which results are given for `COc1cccc2c1C(=O)c1c(O)c3c(c(O)c1C2=O)CC(O)(/C(C)=N/NC(=O)CCCCC(=O)N/N=C(\C)C1(O)Cc2c(O)c4c(c(O)c2C(OC2CC(N)C(O)C(C)O2)C1)C(=O)c1c(OC)cccc1C4=O)CC3OC1CC(N)C(O)C(C)O1` (stereo not given)?
Answer: survivor count (dose: 12.5 mg/kg/injection, schedule: Q01DX009 (ip), vehicle: water): 10 of 10; survivor count (dose: 25.0 mg/kg/injection, schedule: Q01DX009 (ip), vehicle: water): 10 of 10

Question: How did the T/C (dose: 4.0 mg/kg/injection, schedule: Q01DX009 (ip), vehicle: suspension in saline) turn out when `COc1cc([C@@H]2c3cc4c(cc3[C@@H](OC3OC5COC(C)OC5C(O)C3O)[C@H]3COC(=O)[C@H]23)OCO4)cc(OC)c1O` (stereo not given in full) was run?
Answer: The T/C was 125 % of control.

Question: And the T/C (dose: 8.0 mg/kg/injection, schedule: Q01DX009 (ip), vehicle: Klucel (hydroxypropylcellulose) (HPC))?
Answer: Its T/C is 132 % of control.

Question: What about the T/C (dose: 8.0 mg/kg/injection, schedule: Q01DX009 (ip), vehicle: suspension in saline) of the same molecule?
Answer: The T/C was 147 % of control.

Question: What about the survivor count (dose: 32.0 mg/kg/injection, schedule: Q01DX009 (ip), vehicle: suspension in saline) of the same molecule?
Answer: Its survivor count is 10 of 10.

Question: How did the survivor count (dose: 6.0 mg/kg/injection, schedule: Q01DX009 (ip), vehicle: saline) turn out when `CC[C@@]1(O)C(=O)OCc2c1cc1n(c2=O)Cc2cc3cc(O)ccc3nc2-1` was run?
Answer: The survivor count was 10 of 10.

Question: What does the source list for `O=NN(CCCl)C(=O)NCCCl`?
Answer: T/C (dose: 2.5 mg/kg/injection, schedule: Q01DX009 (ip), vehicle: saline with Tween-80): 127 % of control; T/C (dose: 6.0 mg/kg/injection, schedule: Q01DX009 (ip), vehicle: Klucel (hydroxypropylcellulose) (HPC)): 145 % of control; survivor count (dose: 20.0 mg/kg/injection, schedule: Q01DX009 (ip), vehicle: saline with Tween-80): 10 of 10; survivor count (dose: 24.0 mg/kg/injection, schedule: Q01DX009 (ip), vehicle: Klucel (hydroxypropylcellulose) (HPC)): 9 of 10; survivor count (dose: 24.0 mg/kg/injection, schedule: Q01DX009 (ip), vehicle: saline + alcohol): 10 of 10; survivor count (dose: 40.0 mg/kg/injection, schedule: Q01DX009 (ip), vehicle: saline with Tween-80): 9 of 10; survivor count (dose: 80.0 mg/kg/injection, schedule: Q01DX009 (ip), vehicle: saline with Tween-80): 7 of 10

Question: `CC1=NN(c2cccc(S(=O)(=O)O)c2)C(=O)C1N=Nc1cc(Cl)cc(S(=O)(=O)O)c1O.CC1=NN(c2cccc(S(=O)(=O)O)c2)C(=O)C1N=Nc1cc(Cl)cc(S(=O)(=O)O)c1O.[Cr]` (stereo not given) was tested. Which survivor count (dose: 400.0 mg/kg/injection, schedule: Q01DX009 (ip), vehicle: saline) did it give?
Answer: Its survivor count is 1 of 10.

Question: And the survivor count (dose: 800.0 mg/kg/injection, schedule: Q01DX009 (ip), vehicle: saline)?
Answer: The survivor count was 0 of 10.
